Data as given in PMC5932160.

T1: GSrhino-SMXL7 (SMAX1-LIKE 7, N-terminal GSrhino fusion) (Arabidopsis thaliana) (UniProt O80875)
T1 sequence: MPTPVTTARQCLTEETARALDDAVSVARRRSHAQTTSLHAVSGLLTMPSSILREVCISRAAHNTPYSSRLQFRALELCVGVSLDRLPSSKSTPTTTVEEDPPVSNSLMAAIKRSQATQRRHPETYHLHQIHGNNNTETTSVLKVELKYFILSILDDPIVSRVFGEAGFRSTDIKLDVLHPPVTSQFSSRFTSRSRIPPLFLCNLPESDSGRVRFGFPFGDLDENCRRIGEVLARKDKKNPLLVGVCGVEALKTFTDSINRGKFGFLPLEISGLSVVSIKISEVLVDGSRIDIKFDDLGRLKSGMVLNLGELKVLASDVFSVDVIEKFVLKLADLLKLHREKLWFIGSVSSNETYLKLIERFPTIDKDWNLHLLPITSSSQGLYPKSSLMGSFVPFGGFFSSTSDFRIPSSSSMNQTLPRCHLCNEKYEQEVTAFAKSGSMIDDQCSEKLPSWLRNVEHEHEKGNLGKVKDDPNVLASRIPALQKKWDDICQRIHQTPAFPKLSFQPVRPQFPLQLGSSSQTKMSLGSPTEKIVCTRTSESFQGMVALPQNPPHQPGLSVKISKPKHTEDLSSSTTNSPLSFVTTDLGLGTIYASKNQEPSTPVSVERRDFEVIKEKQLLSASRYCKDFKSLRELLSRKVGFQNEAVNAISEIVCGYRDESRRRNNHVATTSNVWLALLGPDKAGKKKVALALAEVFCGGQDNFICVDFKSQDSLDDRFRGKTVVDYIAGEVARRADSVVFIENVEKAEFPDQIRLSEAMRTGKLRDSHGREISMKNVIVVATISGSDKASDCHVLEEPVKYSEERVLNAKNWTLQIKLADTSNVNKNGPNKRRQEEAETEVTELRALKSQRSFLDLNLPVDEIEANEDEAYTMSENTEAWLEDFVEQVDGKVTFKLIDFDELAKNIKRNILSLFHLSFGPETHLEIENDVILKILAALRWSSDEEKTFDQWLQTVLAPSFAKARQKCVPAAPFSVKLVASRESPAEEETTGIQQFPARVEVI


Experiments:
[1] = target: T1, GSrhino-SMXL7 (SMAX1-LIKE 7, N-terminal GSrhino fusion) (Arabidopsis thaliana); assay: affinity purification with mass spectrometry; tandem affinity purification (IgG-Sepharose, rhinovirus 3C protease, streptavidin beads, desthiobiotin elution) from 25 mg total protein extract of Arabidopsis cell cultures harvested after 10 min with 1 μM rac-GR24 or acetone (mock); 4°C, 150 mM NaCl, 0.1% NP-40; LC-MS/MS with label-free quantification or normalisation on the bait level
[2] = target: GSrhino-tagged ΔSMXL7 (modified SMXL7 resistant to strigolactone-induced degradation) (Arabidopsis thaliana) (UniProt O80875); assay: as above

Row | binding [1] | binding [2] | Molecule
1 | binds | – | ubiquitin, endogenous
2 | – | no binding | DWARF14 (D14), endogenous (protein, UniProt Q9SQR3 1-267) MSQHNILEALNVRVVGTGDRILFLAHGFGTDQSAWHLILPYFTQNYRVVLYDLVCAGSVNPDYFDFNRYTTLDPYVDDLLNIVDSLGIQNCAYVGHSVSAMIGIIASIRRPELFSKLILIGFSPRFLNDEDYHGGFEEGEIEKVFSAMEANYEAWVHGFAPLAVGADVPAAVREFSRTLFNMRPDISLFVSRTVFNSDLRGVLGLVRVPTCVIQTAKDVSVPASVAEYLRSHLGGDTTVETLKTEGHLPQLSAPAQLAQFLRRALPR

No constants are given. Whether binding was seen depends on the method and setting. In cells and extracts the contact can be indirect. A yes stands for co-enrichment or nearness to the bait. Other partners may have been found. For some assays here: No binding means not detected with the bait. For some assays here: Sequences can lack the tags named with a protein.
